PubChem BioAssay AID1508588, Peter MacCallum Cancer Centre – 2020

- Aim: 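Knock-downs boosting vemurafenib effects on melanoma cell growth or lactate release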 (primary screen)
- Cells: human WM266.4 melanoma cells (BRAF V600 mutant)
- Knock-down reagent: siRNA pool against human genes, 40 nM
- Duration: 96 h from transfection to read-out
- Conditions: vemurafenib 300 nM (about IC25), added 48 h after transfection, for 48 h; comparison arm got DMSO vehicle only
- Measured: 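Ratios to non-targeting siRNA for cell gain, counted as DAPI nuclei after minus before drug and averaged over two replicates, and for absorbance-read medium lactate per cell; both binned into fold-change classes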
- Reading the numbers: cell gain with vemurafenib: higher = more cell gain than with non-targeting siRNA; lactate per cell with vemurafenib: higher = more lactate made per cell
- Call rule: 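Enhancement is called by pairing each knock-down's vehicle-arm and drug-arm fold-change classes for viability or glycolysis; which class combinations qualify is not given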
- Calls: active = enhances vemurafenib effect; inactive = no enhancement seen
In all, the deposit lists about 18,000 reagents; shown is a part drawn at random. 790 of all reagents (4.4%) were called active. 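Calls rest on a combination of fold-change classes in drug and vehicle arms, not all shown here.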

After knock-down of NLRC3, the record shows cell gain with vemurafenib 0.87; lactate per cell with vemurafenib 0.68; inactive.
Knock-down of PTGFRN came out at: cell gain with vemurafenib 0.34; lactate per cell with vemurafenib 0.99; inactive.
RB1 gave cell gain with vemurafenib 1.09; lactate per cell with vemurafenib 0.48; inactive.
Against HOMEZ the deposit lists cell gain with vemurafenib 0.54; lactate per cell with vemurafenib 1.27; inactive.
After knock-down of LCE1B, the record shows cell gain with vemurafenib 0.02; lactate per cell with vemurafenib 1.38; inactive.
MRPS26 showed cell gain with vemurafenib 1.07; lactate per cell with vemurafenib 0.67; inactive.
After knock-down of SLC2A12 the results were cell gain with vemurafenib 0.54; lactate per cell with vemurafenib 0.38; inactive.
For FCHO2 the deposit lists cell gain with vemurafenib 0.59; lactate per cell with vemurafenib 1.6; inactive.
Knock-down of RNASE11 gave: cell gain with vemurafenib 0.62; lactate per cell with vemurafenib 0.58; inactive.

Records listed so far whose gene name begins with R or r (2):
RB1 — cell gain with vemurafenib = 1.09; lactate per cell with vemurafenib = 0.48; outcome = inactive
RNASE11 — cell gain with vemurafenib = 0.62; lactate per cell with vemurafenib = 0.58; outcome = inactive

More results follow.
With knock-down of FAM135A the results were cell gain with vemurafenib 0.76; lactate per cell with vemurafenib 1.18; inactive.
HRH4 gave cell gain with vemurafenib 0.85; lactate per cell with vemurafenib 0.8; inactive.
C2CD4B gave cell gain with vemurafenib 0.44; lactate per cell with vemurafenib 0.89; inactive.
For SIAH3, the entry reads cell gain with vemurafenib 0.57; lactate per cell with vemurafenib 1.09; inactive.
FSD2 showed cell gain with vemurafenib 0.53; lactate per cell with vemurafenib 0.72; inactive.
With knock-down of CISD1, the record shows cell gain with vemurafenib 1.04; lactate per cell with vemurafenib 0.83; inactive.
After knock-down of YIPF5, the record shows cell gain with vemurafenib 0.69; lactate per cell with vemurafenib 0.8; inactive.
Against DEFB103A, the values are cell gain with vemurafenib 0.33; lactate per cell with vemurafenib 1.31; inactive.
Knock-down of MAP3K7 came out at: cell gain with vemurafenib 0.58; lactate per cell with vemurafenib 0.3; active.
Silencing of BCAN gave: cell gain with vemurafenib 0.81; lactate per cell with vemurafenib 0.72; inactive.
With knock-down of APOBEC4 the results were cell gain with vemurafenib 0.21; lactate per cell with vemurafenib 0.94; inactive.
Knock-down of KYAT3 came out at: cell gain with vemurafenib 0.02; lactate per cell with vemurafenib 1.38; inactive.
Silencing of ZC4H2 came out at: cell gain with vemurafenib 0.19; lactate per cell with vemurafenib 1.77; inactive.
Depletion of SCEL resulted in: cell gain with vemurafenib 0.74; lactate per cell with vemurafenib 1.13; inactive.
Against TAF5, the values are cell gain with vemurafenib 0.56; lactate per cell with vemurafenib 0.9; inactive.
For H2AC8, the values are cell gain with vemurafenib 0.94; lactate per cell with vemurafenib 0.23; active.
Depletion of HTR1A came out at: cell gain with vemurafenib 0.39; lactate per cell with vemurafenib 1.22; inactive.
With knock-down of PLCH1 the results were cell gain with vemurafenib 0.96; lactate per cell with vemurafenib 1.22; inactive.
